Our source for the IC50 values is EP4847511A1, “COMPOUND WITH TRICYCLIC STRUCTURE, PHARMACEUTICAL COMPOSITION THEREOF AND USE THEREOF” (dated 2026).

Amino acid sequences for entries named in this document (tags omitted). A change or cut given only in a name is not applied to a line headed by its entry.
UniProt P42336, whole entry: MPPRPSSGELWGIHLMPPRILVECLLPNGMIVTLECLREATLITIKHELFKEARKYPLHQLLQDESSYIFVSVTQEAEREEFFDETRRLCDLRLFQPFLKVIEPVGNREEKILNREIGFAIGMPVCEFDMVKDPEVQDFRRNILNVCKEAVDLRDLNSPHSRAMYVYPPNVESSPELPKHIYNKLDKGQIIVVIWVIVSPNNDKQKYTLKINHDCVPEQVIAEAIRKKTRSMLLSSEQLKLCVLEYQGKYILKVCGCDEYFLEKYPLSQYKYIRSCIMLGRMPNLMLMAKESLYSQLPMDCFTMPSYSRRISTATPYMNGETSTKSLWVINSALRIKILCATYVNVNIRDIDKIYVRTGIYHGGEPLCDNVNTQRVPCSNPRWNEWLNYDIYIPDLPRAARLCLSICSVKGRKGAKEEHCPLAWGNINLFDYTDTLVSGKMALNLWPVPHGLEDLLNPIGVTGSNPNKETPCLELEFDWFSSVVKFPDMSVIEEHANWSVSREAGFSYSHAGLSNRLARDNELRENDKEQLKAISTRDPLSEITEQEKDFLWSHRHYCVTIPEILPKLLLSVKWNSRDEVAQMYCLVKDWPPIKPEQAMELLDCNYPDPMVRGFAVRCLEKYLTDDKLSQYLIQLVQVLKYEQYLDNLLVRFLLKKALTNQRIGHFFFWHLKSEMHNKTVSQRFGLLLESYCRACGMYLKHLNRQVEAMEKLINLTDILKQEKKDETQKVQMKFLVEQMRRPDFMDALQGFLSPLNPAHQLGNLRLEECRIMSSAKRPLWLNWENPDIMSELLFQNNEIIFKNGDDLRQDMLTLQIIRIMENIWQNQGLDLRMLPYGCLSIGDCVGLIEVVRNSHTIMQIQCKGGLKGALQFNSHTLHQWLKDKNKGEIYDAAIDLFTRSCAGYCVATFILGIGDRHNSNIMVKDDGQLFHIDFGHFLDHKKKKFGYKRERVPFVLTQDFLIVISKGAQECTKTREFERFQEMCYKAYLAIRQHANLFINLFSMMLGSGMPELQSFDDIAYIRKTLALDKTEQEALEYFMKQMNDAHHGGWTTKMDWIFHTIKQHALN
UniProt P42336, whole entry H1047R: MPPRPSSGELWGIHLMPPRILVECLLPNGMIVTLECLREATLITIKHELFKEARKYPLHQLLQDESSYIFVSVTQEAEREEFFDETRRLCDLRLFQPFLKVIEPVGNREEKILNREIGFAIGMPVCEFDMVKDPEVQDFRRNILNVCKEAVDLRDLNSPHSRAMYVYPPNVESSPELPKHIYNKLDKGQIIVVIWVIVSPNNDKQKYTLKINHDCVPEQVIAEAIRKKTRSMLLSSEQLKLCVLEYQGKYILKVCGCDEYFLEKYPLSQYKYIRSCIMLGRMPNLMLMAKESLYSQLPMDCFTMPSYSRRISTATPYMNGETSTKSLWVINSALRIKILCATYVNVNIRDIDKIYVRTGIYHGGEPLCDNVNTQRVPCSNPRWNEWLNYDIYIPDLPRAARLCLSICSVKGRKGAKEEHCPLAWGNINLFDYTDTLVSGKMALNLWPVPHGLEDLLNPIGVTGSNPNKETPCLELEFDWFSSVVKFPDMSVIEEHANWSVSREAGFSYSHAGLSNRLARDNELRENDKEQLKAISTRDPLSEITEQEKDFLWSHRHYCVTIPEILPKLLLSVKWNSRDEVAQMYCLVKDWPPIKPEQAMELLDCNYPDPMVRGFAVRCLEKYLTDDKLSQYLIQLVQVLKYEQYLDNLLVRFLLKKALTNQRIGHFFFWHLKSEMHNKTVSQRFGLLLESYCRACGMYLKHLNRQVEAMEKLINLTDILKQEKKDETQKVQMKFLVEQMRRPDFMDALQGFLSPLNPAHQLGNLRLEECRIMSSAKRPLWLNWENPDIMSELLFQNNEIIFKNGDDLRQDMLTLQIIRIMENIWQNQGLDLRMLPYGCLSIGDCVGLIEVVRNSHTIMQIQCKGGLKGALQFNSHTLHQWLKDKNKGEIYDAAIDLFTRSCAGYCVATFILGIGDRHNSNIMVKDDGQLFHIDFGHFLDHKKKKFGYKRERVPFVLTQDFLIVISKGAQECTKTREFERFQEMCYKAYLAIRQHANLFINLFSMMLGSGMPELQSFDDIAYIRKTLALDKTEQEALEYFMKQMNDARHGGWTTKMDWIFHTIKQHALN
UniProt P27986, whole entry partner: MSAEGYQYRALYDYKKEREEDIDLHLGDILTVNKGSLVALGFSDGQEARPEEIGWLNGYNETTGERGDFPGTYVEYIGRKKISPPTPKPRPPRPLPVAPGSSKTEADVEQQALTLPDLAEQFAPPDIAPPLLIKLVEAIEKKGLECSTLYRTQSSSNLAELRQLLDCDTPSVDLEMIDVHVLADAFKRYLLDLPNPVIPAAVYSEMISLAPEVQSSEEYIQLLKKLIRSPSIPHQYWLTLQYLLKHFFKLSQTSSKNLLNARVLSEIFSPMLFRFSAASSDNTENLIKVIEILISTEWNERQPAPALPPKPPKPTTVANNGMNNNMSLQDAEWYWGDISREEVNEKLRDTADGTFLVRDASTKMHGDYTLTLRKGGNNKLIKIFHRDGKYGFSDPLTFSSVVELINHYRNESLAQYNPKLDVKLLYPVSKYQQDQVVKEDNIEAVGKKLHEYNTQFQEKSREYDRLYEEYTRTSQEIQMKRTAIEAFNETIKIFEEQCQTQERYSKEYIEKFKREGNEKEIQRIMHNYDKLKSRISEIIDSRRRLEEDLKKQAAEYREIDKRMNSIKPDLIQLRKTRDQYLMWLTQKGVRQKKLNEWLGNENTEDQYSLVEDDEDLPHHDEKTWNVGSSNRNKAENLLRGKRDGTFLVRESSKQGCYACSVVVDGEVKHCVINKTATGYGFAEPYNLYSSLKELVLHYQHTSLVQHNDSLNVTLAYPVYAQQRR

The target in one assay is PI3Kα H1047R (Homo sapiens, UniProt P42336, H1047R). The assay can be described thus: ADP-Glo Kinase Assay, enzyme activity inhibition of PI3Kα H1047R. As to conditions: read-out: PI3KαH1047R IC50, ATP 25µM, PIP2 50µg/mL, kinase 0.05µg/mL, room temperature 1 hour. The method, then:
(§1) Effect Example IC50 of PI3Kα and PI3KαH1047R enzyme activity inhibition evaluation assay
(§2) The ADP-Glo Kinase Assay Kit was used for the experiments. The following buffer solutions were prepared: 50 mM HEPES, pH 7.5, 3 mM MgCl2, 1 mM EGTA, 100 mM NaCl, 0.03% CHAPS, 2 mM DTT. The tested compound samples were dissolved in DMSO and added to the screening system at a certain starting concentration of, for example, 10 µM, diluted 3-fold, while setting a DMSO control and an unkinase control. The optimal concentrations of PI3Kα, PI3Kα H1047R, substrate (PIP2) and ATP were prepared with buffers. The enzyme reaction system included: buffer, ATP 25µM, kinase substrate (PIP2, 50µg/mL), kinase PI3Kα (0.15µg/mL), PI3Kδ H1047R (0.05µg/mL), etc. The reaction system was reacted at room temperature for 1 hour, then terminated by adding a terminal reagent (ADP-Glo reagent, 5µL), and the ADP content in the system was detected using a detection reagent (Kinase Detection Reagent, 10µL). Signal data was collected using the Envision instrument. Calculated the % inhibition according to the following formula: % inhibition = (DMSO control signal value - sample signal value)/ (DMSO control signal value - unkinase control signal value). Inhibition curves were plotted using the formula Y=Bottom + (Top-Bottom)/(1+(IC50/X)^HillSlope) to obtain IC50 values and the results are as shown in Table 1.
(§3) Result + represents IC50 <= 250nM ++ represents 250 nM < IC50 < = 10µM +++ represents IC50 > 10 µM Table 1
A general note: ADP-Glo turns the ADP formed in a reaction into a luminescent signal.

A further assay has as its target PI3Kα (Homo sapiens, UniProt P42336). Nature of the assay: ADP-Glo Kinase Assay, enzyme activity inhibition of PI3Kα. As to conditions: read-out: PI3Kα IC50, ATP 25µM, PIP2 50µg/mL, kinase PI3Kα 0.15µg/mL, room temperature 1 hour. The method, then:
as §1, §2, §3

Structures were worked out from names or drawings and are uncertain. Some results are limits rather than exact numbers.

For `Cn1nc2c(Cl)cc(NC(=O)c3cc(F)cc(C(F)(F)F)c3)c3c2c1C(=O)N[C@@H]3c1cc(Cl)c(F)cc1Cl`, the IC50 at PI3Kα H1047R is < 0.25 µM; at PI3Kα it was > 10 µM.

As for `Cn1nc2c(Cl)cc(NC(=O)c3cc(F)cc(C(F)(F)F)c3)c3c2c1C(=O)N[C@H]3c1cc(Cl)c(F)cc1Cl`, the IC50 at PI3Kα H1047R is 0.25 to 10 µM; at PI3Kα, > 10 µM.

Take `Cn1nc2c(-c3ccccc3C#N)cc(NC(=O)c3cc(F)cc(C(F)(F)F)c3)c3c2c1C(=O)N[C@H]3c1cc(F)ccc1Cl`: the IC50 was 0.25 to 10 µM on PI3Kα H1047R and > 10 µM on PI3Kα.

As for `Cn1nc2c(-c3ccccc3C#N)cc(NC(=O)c3cc(F)cc(C(F)(F)F)c3)c3c2c1C(=O)N[C@@H]3c1cc(F)ccc1Cl`, the figures for the IC50 on PI3Kα H1047R and on PI3Kα were < 0.25 µM and 0.25 to 10 µM, respectively.
